According to PMC3192746:
These are yes or no findings as the source states them, for the method shown. Binding seen in cells or lysates may run through a third protein.

Protein sequences, listed by entry. Tags and fused reporters are not part of them. Residues count along the entry.
UniProt Q10589, residues 1-161: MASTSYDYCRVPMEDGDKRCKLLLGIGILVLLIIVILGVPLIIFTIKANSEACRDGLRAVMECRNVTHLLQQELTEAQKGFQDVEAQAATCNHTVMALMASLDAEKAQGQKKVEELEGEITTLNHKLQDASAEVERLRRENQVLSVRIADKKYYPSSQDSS
UniProt Q77376: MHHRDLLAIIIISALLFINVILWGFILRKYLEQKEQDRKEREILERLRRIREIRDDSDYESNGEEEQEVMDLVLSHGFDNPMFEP

Target: Human tetherin with an HA tag at the N-terminus (HA-tetherin) (human) (UniProt Q10589)
Assay: co-IP; 293T cells co-transfected with HA-tetherin (500 ng) and Vpu-FLAG plasmids; lysates 24 h after transfection; IP with anti-HA MicroBeads (μMACS HA isolation kit); Western blot with anti-FLAG and anti-tetherin

group O Vpu-FLAG (ANT70) (from UniProt Q77376 1-85)
binding: no binding
